Assay results as given in paper PMC7019889.
Results are given in words; binding and its absence hold for the method and conditions named. In cells and extracts the contact can be indirect. Some entries that bind do so weakly or less than the wild type.

Biological target: T1, endogenous MYBBP1A in mouse brain (mouse (endogenous in C57BL mouse brain)) (UniProt Q7TPV4)
T1 sequence: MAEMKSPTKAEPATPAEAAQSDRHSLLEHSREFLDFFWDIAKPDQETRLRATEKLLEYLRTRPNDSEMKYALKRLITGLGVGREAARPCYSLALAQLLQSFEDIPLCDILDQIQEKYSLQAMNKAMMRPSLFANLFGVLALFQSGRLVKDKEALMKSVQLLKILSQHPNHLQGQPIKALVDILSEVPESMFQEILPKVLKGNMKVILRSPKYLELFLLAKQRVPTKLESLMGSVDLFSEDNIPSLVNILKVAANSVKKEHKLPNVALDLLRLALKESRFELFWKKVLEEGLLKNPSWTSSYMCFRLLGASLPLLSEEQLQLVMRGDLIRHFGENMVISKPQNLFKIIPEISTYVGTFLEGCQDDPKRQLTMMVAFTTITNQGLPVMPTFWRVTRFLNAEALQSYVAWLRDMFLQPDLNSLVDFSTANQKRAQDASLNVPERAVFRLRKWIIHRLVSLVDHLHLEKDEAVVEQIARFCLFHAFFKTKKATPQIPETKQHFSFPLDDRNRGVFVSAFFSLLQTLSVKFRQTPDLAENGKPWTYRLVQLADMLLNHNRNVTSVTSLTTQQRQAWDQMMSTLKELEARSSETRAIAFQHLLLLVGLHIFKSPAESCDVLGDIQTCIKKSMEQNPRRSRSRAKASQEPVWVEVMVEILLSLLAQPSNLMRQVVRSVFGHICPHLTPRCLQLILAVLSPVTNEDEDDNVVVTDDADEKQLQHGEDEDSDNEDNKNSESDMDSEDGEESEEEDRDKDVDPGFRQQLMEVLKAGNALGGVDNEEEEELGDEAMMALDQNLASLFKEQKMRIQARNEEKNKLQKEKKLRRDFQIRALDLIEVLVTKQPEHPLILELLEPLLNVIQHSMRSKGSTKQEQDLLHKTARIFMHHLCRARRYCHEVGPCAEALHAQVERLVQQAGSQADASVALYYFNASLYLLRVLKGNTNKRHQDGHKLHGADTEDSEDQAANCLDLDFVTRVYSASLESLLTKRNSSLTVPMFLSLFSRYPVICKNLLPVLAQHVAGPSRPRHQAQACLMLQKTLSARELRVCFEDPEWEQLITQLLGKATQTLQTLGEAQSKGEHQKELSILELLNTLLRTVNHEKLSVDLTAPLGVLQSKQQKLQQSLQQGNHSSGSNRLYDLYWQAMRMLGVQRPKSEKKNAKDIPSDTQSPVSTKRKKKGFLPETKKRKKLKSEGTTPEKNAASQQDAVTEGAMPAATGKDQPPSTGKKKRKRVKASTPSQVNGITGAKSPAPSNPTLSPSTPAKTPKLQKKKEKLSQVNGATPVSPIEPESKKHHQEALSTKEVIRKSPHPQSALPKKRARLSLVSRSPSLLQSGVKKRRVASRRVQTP
Test: co-IP; C57BL mouse brain (SN, STR, CTX, CB) homogenized in RIPA buffer; MYBBP1A immunoprecipitated, rabbit IgG as negative control; immunoblot

binding: binds
B1: endogenous USP29 in mouse brain (enzyme, UniProt Q9ES63 1-869)
chain: MAHLKINGLVQIRSTNRSKHTRASQWKEAVIEIVERKQKVNLVVSFKLEERRRVFQLGDNVTGVVVSGELGLYHLDLTLRDDTSLLIDKLSSADVEHLKSFLDSSTPCESQQPMEPMSSQDDLESSDPFCGEHQEAACGSLNTTPESGTPLSRKMPLSMSNTTGGQKRGEKQGRKRKTEPSSSSAEVNKDIPKENTPDQKKKSRRYYSRNRGGKAEKAVTLREQEKRSNWKLEPAFNSKSYGRANLDGTILPIATCSDDRDVSIFGLEIITHNGVQSLPDPYLNQLKREGFPNLGNTCYMNSILQSVFGIPTFAKDLLTQGIPWEKVSYDDLIMPLSQLLVLKDIRDVEIKGELLTSVKKSISTVADTFSGNEQNDAHEFLSLCLDQLKLNMEKVNAMWDTERRNTCAGSAGTKRFVCPVGANFEFELHSSIICEGCGEATIKTEVSNYLSIDLHHGTKTHPLSIQKSFDLFFTPEKIEHNCEKCKNKNSVLKYTLRRLPRVLIVHLKRYQVTTDLLPVKSEQPVEISKYLNISSHCHENRKLPFPLANTSPDVSQGMMPGIFNQSMLSKKVISESCDPMVLQVGSSVDAEIQSFQIMYEDEDASEEQQQRGLESGSMLEPELVKTENRILRQKTSLATDSMMGDGYSFLPMLCEPLSIQDPGLAEMGLQEVPENPEFKNYEKINIYGKSDGRTNTELSKLYQNHGSRIKGLFLPASLASVSSQEDPEKDLSRSPELQEDDPHSFAFGSDDSKDGEMGDDLQNYRLVSVVSHFGSSPNSGHYVSDVYDFQKQAWLLYSDVQVFESSDPSIQENRLNSGYIFFYMHNEIFEELLKKASECKVLSTSKEEKRDIDYFSTLLNGLTYILEEF
